For at least one entry, the source does not settle the construct or the ends of the probe. For some assays here: At least one verdict rests on a figure or table, not on a statement of the authors. Tags and fusion partners may be left off the protein sequences shown.
Assays:
[1] = target: T1, hRev1 330-833 polymerase core (human) (UniProt Q9UBZ9); assay: fluorescence polarization; settings: Fluorescence polarization: 1 nM FAM-DNA, 100 mM KCl or LiCl, DNA annealed in 50 mM HEPES pH 7.5, temperature not stated, recombinant protein, residues 330-833
T1 sequence (looked up): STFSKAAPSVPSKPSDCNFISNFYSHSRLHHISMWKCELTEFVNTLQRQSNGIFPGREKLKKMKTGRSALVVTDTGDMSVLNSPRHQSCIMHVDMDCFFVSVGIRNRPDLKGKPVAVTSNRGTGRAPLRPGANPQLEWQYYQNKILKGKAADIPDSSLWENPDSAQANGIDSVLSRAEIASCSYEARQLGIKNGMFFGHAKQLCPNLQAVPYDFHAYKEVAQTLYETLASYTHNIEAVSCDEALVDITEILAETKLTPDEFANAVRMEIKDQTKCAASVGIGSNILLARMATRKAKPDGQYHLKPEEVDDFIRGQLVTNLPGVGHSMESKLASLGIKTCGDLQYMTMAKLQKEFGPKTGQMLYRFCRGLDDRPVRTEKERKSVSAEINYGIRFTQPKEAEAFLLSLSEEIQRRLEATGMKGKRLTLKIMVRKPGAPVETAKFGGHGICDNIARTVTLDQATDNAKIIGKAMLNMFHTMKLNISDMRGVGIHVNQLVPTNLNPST

[2] = target: T2, hRev1 full-length (human) (UniProt Q9UBZ9); assay: HPG arginine footprinting-MS; settings: 100 mM KCl, Footprinting: 50 mM HEPES pH 7.5, 100 mM KCl, 10 uM protein, 30 uM ssDNA, room temperature, recombinant protein, residues 1-1251, label: 5'-FAM, folded or branched DNA
T2 sequence (looked up): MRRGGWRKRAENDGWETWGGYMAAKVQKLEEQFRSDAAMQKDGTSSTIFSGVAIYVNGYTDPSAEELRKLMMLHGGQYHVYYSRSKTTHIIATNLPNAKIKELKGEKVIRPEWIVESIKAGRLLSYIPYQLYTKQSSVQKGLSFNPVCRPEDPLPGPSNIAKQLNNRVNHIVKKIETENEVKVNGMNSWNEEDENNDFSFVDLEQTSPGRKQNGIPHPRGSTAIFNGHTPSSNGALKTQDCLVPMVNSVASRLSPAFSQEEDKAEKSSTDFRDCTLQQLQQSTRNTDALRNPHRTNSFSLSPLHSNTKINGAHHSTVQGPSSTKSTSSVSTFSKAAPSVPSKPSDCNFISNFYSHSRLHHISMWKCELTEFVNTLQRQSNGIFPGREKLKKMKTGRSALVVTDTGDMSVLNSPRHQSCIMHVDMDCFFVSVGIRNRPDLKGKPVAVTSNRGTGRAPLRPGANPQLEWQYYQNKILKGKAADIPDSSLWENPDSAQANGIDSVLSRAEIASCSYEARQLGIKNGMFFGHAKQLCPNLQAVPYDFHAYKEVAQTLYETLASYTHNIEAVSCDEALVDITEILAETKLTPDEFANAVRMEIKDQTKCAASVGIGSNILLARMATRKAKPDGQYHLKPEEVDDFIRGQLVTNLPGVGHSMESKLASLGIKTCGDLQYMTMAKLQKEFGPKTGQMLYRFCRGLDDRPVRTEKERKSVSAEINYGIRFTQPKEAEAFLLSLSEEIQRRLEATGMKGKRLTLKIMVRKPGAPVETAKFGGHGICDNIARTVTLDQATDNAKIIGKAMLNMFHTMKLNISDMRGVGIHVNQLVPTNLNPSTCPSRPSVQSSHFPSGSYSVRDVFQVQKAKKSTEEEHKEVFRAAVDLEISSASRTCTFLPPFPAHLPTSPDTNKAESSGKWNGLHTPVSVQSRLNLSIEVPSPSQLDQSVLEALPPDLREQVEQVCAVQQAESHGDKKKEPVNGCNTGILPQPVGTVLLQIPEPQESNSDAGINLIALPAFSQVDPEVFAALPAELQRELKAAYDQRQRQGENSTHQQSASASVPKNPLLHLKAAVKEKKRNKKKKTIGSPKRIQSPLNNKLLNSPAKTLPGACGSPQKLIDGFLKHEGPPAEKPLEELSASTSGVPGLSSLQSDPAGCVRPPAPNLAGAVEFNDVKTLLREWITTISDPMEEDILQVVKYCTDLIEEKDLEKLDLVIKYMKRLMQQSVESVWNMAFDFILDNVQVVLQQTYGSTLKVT

[3] = 100 mM LiCl, label: 5'-FAM, folded or branched DNA
[4] = 100 mM KCl, label: 5'-FAM on template

Row | Sequence | Kd [1, 3] [µM] | Kd [1, 4] [µM] | also measured
1 | AGGGAGGGTGGGAAGGGTTATGAGATGAT [Myc 2/11 ss G4] | 0.09 |  | 
2 | AGGGGCGGGCGCTTTAGGAAAAGGGCGGGTTATGAGATGAT [Bcl2 1245 ss G4] | 0.2 |  | 
3 | AGGGCGGTGTGGGAAGAGGGAATATGAGATGAT [KRAS 22RT ss G4] | 0.25 |  | 
4 | TGCTTGCTGTGCTTGCTATGAGATGAT / ATCATCTCATA [Non-G4 TBA primer-template] |  | 0.27 | 
5 | TTGCGTTAGCGTTAGCGTTAGCGATATGAGATGAT / ATCATCTCATA [Non-G4 Telo-4 primer-template] |  | 1.6 | 
6 | AGGGTGGGTAGGGTGGGTTATGAGATGAT [Myc 14/23 ss G4] | 0.22 |  | binding result ([2]; ss-Myc G4 (14/23 and label not stated), R436, R458, R618, R742, R760 protected): binds
7 | AGCGTGCGTAGCGTGCGTTATGAGATGAT / ATCATCTCATA [Non-G4 Myc primer-template] |  | 0.77 | 
8 | AGGGCGGGGCCGGGGAGGGTATGAGATGAT [Rev1-prom ss G4] | 0.18 |  | 
9 | TTGGGTTAGGGTTAGGGTTAGGGATATGAGATGAT [hTelo-4 ss G4] |  |  | Kd ([1]; 100 mM LiCl (text: 634 +/- 105), label: 5'-FAM, folded or branched DNA): 0.63 µM
10 | TGGTTGGTGTGGTTGGTATGAGATGAT [TBA ss G4] |  |  | binding result ([2]; label not stated, R458, R618, R696 protected): binds
